This is one part of the list.
Compound: CC1Cc2ccccc2N1C(=O)C1CCCN(C1)C(=O)CCl (mixture of isomers) [TRIM25 ligand 11 (diastereomer mixture)]
Assay: probe-labelled cysteine peptide fold change vs DMSO (competition) (log2 fold change); higher = less target engagement (more negative = stronger competition)
Settings: 10 µM; THP-1; incubation time: 4 h
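Further: competitive chemoproteomic profiling in live THP-1 cells with an iodoacetamide desthiobiotin (IA-DTB) probe, comparing probe-labelled peptide intensities in compound-treated cells against DMSO-treated controls.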

Target	probe-labelled cysteine peptide fold change
MYO6_Q9UM54_1110_DTINTSCDIELLAACR (UniProt Q9UM54)	0.0165
NAXE_Q8NCW5_158_RPNKPLFTALVTQCQK (UniProt Q8NCW5)	-0.313
NASP_P49321_568_LGEVSVESENYVQAVEEFQSCLNLQEQYLEAHDR (UniProt P49321)	-0.127
NCDN_Q9UBB6-2_5_ASDCEPALNQAEGR (UniProt Q9UBB6)	0.0744
NCAM2_O15394_380_YDCEAASR (UniProt O15394)	0.108
NCAPD2_Q15021_772_CSSVMLLGMMAR (UniProt Q15021)	-0.0895
MYO18A_Q92614_404_ANAPSCDRLEDLASLVYLNESSVLHTLR (UniProt Q92614)	-0.123
NAPG_Q99747_193_EIENYPTCYK (UniProt Q99747)	0.0586
MYO6_Q9UM54_1102_DTINTSCDIELLAACREEFHR (UniProt Q9UM54)	-0.204
MYO6_Q9UM54_252_LCAGASEDIR (UniProt Q9UM54)	0.257
MYO6_Q9UM54_321_MCTAMK (UniProt Q9UM54)	-0.157
MYO6_Q9UM54_790_RVNHWLTCSR (UniProt Q9UM54)	0.0796
NCAM2_O15394_42_FFTCTAIGEPESIDWYNPQGEK (UniProt O15394)	0.321
NANS_Q9NR45_8_PLELELCPGR (UniProt Q9NR45)	-0.084
NBN_O60934_31_NCAILIENDQSISR (UniProt O60934)	0.0195
MYO1G_B0I1T2_97_DTCIVISGESGAGK (UniProt B0I1T2)	0.0799

An excerpt of these results, comma-delimited:
Target,probe-labelled cysteine peptide fold change
MYO6_Q9UM54_1102_DTINTSCDIELLAACREEFHR (UniProt Q9UM54),-0.204
MYO6_Q9UM54_252_LCAGASEDIR (UniProt Q9UM54),0.257

Reference: the supplement of paper PMC12067093, “Discovery and optimisation of a covalent ligand for TRIM25 and its application to targeted protein ubiquitination” (Chemical Science, 2025)
